We go through 46 compounds from the supplement of paper PMC10398353.

The structures appear in SMILES notation. Where a name gives a salt, the structure may show the parent alone. ± gives the standard deviation of the averaged measurements. Some of the results follow. Single values of this set are uncertain.

The test system of this test is Salmonella enterica serovar Typhimurium ST313 D23580. Kind of test: normalized bacterial growth (OD600 20 h minus 0 h, interquartile-mean normalized) (fraction of plate interquartile mean); higher = more bacterial growth (less inhibition). To be noted: LPM (pH 5.8, low phosphate, low Mg2+), concentration: 10 µM, temperature: 37 °C.
`CC(/C=C/c1cccc(Oc2ccc(F)cc2)c1)N(O)C(N)=O` (stereo unspecified) had a normalized bacterial growth of 0.837.

The compound `NC(=O)C(c1ccccc1)(c1ccccc1)[C@@H]1CCN(CCc2ccc3c(c2)CCO3)C1` came in with a normalized bacterial growth of 1.16. For `CCCNCC(O)COc1ccccc1C(=O)CCc1ccccc1` (stereo unspecified) [Propafenone hydrochloride] the value was 0.924; for `CCCCCCCCCCCCCCCCCC(=O)OC(CC(=O)O)C[N+](C)(C)C` (racemic) [DL-Stearoylcarnitine chloride], 1.1; for `COc1cc(/C=C(\C#N)C(=O)Nc2nnc(C(F)(F)F)s2)ccc1OCc1ccc(C(F)(F)F)cc1C(F)(F)F`, 1.12. In the case of `O=[N+]([O-])c1cccc2cn[nH]c12` [7-Nitroindazole], the normalized bacterial growth was determined as 1.02. With `COc1ccccc1OCC(O)CN1CCN(CC(=O)Nc2c(C)cccc2C)CC1` (stereo unspecified) the figure was 1. For `COc1ccccc1OCC(O)CN1CCN(CC(=O)Nc2c(C)cccc2C)CC1` (stereo unspecified) [Ranolazine dihydrochloride], the normalized bacterial growth worked out at 0.982.

`C[C@H]1C[C@@H]2[C@H]([C@@H](O)C[C@@]3(C)[C@H]2CC[C@]3(O)C(=O)CO)[C@@]2(C)C=CC(=O)C=C12` ["Methylprednisolone, 6-alpha"]: the normalized bacterial growth stood at 1.09. Turning to `C[C@H]1C[C@@H]2[C@H]([C@@H](O)C[C@@]3(C)[C@H]2CC[C@]3(O)C(=O)CO)[C@@]2(C)C=CC(=O)C=C12`, the normalized bacterial growth amounted to 1.03. For `CS(=O)(=O)CCCCN=C=S` the value was 0.881. As for `CC(=O)N[C@@H](Cc1c[nH]c2ccccc12)C(N)=O`, the normalized bacterial growth stood at 1.07. With `CC(C)NCC(O)c1ccc2ccccc2c1` (stereo unspecified) the figure was 1.06; with `CC(=O)O[C@]1(C(C)=O)CC[C@H]2[C@@H]3C[C@H](C)C4=CC(=O)CC[C@]4(C)[C@H]3CC[C@@]21C`, 0.938. `O.O.O.O.O.O.O.O.O.O.O.O.O.O.O.O.O=S(=O)([O][Al])OC[C@H]1O[C@@](COS(=O)(=O)[O][Al])(O[C@H]2O[C@H](COS(=O)(=O)[O][Al])[C@@H](OS(=O)(=O)[O][Al])[C@H](OS(=O)(=O)[O][Al])[C@H]2OS(=O)(=O)[O][Al])[C@@H](OS(=O)(=O)[O][Al])[C@@H]1OS(=O)(=O)[O][Al]` displayed a normalized bacterial growth of 0.976. Take `CC(=O)Oc1ccc2c(c1)CCC1C2CC[C@]2(C)C(=O)CCC12` (stereo partly specified): the normalized bacterial growth was 0.922. Take `Nc1nc2c(nc(Br)n2C2OC3COP(=O)(O)O[C@@H]3C2O)c(=O)[nH]1` (stereo partly specified) [8-Bromo-cGMP sodium]: the normalized bacterial growth is 1.01. For `CN(C)c1nc(N(C)C)nc(N(C)C)n1` [Altretamine] the value was 0.933; for `Nc1nc2ccc(Cl)cc2c2nc(-c3ccco3)nn12`, 0.67. With `CCC(C)N(C)C(=O)c1cc2ccccc2c(-c2ccccc2Cl)n1` (stereo unspecified) the figure was 0.897; with `COc1cc2c(cc1C(F)(F)F)N(C(=O)Nc1cc(F)cc(-c3cccnc3)c1)CC2`, 0.599. Regarding `Cc1c(N(C)CS(=O)(=O)O)c(=O)n(-c2ccccc2)n1C`, the normalized bacterial growth was found to be 1.05. In turn, `CN(C)[C@@H]1C(O)=C(C(=O)NCN2CCCC2)C(=O)[C@@]2(O)C(O)=C3C(=O)c4c(O)cccc4[C@@](C)(O)[C@H]3C[C@@H]12` [Rolitetracycline] displayed a normalized bacterial growth of 0.538. `CN(C)[C@@H]1C(O)=C(C(=O)NCN2CCCC2)C(=O)[C@@]2(O)C(O)=C3C(=O)c4c(O)cccc4[C@@](C)(O)[C@H]3C[C@@H]12` registered a normalized bacterial growth of 0.638. For `CC(NCCC(c1ccccc1)c1ccccc1)c1ccccc1` (stereo unspecified) the value was 0.567; for `COc1cc2c3cc1Oc1c(OC)c(OC)cc4c1[C@@H](Cc1ccc(O)c(c1)Oc1ccc(cc1)C[C@@H]3N(C)CC2)N(C)CC4`, 0.974; for `CCN(CC)CCc1nc(-c2ccccc2)no1` [Oxalamine citrate salt], 1.21. With `CC(C)NCC(O)c1ccc(O)c(O)c1` (single isomer, unassigned; (+)) [(+)-Isoproterenol (+)-bitartrate salt] the figure was 0.852. The compound `CNCC(O)c1ccc(OC(=O)C(C)(C)C)c(OC(=O)C(C)(C)C)c1` (stereo unspecified) [Dipivefrin hydrochloride] registered a normalized bacterial growth of 1.

In turn, `C/C=C(/C)C(=O)O[C@H]1CC(C)=CC(=O)[C@@]2(C)CC[C@@](O)(C(C)C)[C@H]12` had a normalized bacterial growth of 1.1. `O=c1c(O[C@@H]2O[C@H](CO)[C@@H](O)[C@H](O)[C@H]2O)c(-c2ccc(O)cc2)oc2cc(O)cc(O)c12` displayed a normalized bacterial growth of 0.894. For `Nc1ncnc2c1c(-c1ccc(Oc3ccccc3)cc1)cn2C1CCCC1` the value was 1.14; for `CCc1cn([C@H]2C[C@H](O)[C@@H](CO)O2)c(=O)[nH]c1=O`, 0.74; for `C[C@@H]1O[C@@H](O[C@H]2[C@H](Oc3cc(O)c4c(=O)cc(-c5ccc(O)cc5)oc4c3)O[C@H](CO)[C@@H](O)[C@@H]2O)[C@H](O)[C@H](O)[C@H]1O`, 1.05 ± 0.086. `CC(=O)O[C@H]1CC[C@@]2(C)[C@@H](CC[C@@H]3[C@@H]2CC(=O)[C@]2(C)[C@@H]4[C@H](C[C@@H]32)O[C@]2(CC[C@@H](C)CO2)[C@H]4C)C1` showed a normalized bacterial growth of 1.06.

Consider `O=c1oc2ccccc2c(O)c1Cc1c(O)c2ccccc2oc1=O`, for which the normalized bacterial growth was determined as 1.06. Take `Cn1ccc2cc(NC(=O)Nc3cccnc3)ccc21`: the normalized bacterial growth worked out at 0.713. In turn, `COC(=O)/C=C/C(C)=C\C=C\C(C)=C\C=C\C=C(C)\C=C\C=C(C)\C=C\C(=O)O` had a normalized bacterial growth of 0.875. With `CC(=O)[C@]1(O)Cc2c(O)c3c(c(O)c2[C@@H](O[C@H]2C[C@H](N)[C@H](O)[C@H](C)O2)C1)C(=O)c1ccccc1C3=O` [Idarubicin] the figure was 1.26; with `CN1CCN(CCCN2c3ccccc3Sc3ccc(Cl)cc32)CC1` [Prochlorperazine dimaleate], 1.36. The compound `CN1CCN(CCCN2c3ccccc3Sc3ccc(Cl)cc32)CC1` showed a normalized bacterial growth of 0.7. As to `O=C1c2ccccc2C(=O)c2c1ccc(O)c2O`, the normalized bacterial growth was 0.869. In turn, `CC(=O)Oc1cc(OC(C)=O)c2c(c1)O[C@H](c1ccc(OC(C)=O)c(OC(C)=O)c1)[C@H](OC(C)=O)C2` returned a normalized bacterial growth of 1.12. On to `C[C@H](CCC(=O)O)[C@H]1CC[C@H]2[C@@H]3[C@H](O)C[C@@H]4C[C@H](O)CC[C@]4(C)[C@H]3CC[C@]12C`, for which the normalized bacterial growth turned out to be 1.01. Consider `C[C@H](CCC(=O)O)[C@H]1CC[C@H]2[C@@H]3[C@H](O)C[C@@H]4C[C@H](O)CC[C@]4(C)[C@H]3CC[C@]12C` [Chenodiol], for which the normalized bacterial growth was found to be 0.767.

As to `COc1ccc([C@@H]2CC(=O)c3c(O)cc(O[C@@H]4O[C@H](CO)[C@@H](O)[C@H](O)[C@H]4O[C@@H]4O[C@@H](C)[C@H](O)[C@@H](O)[C@H]4O)cc3O2)cc1O`, the normalized bacterial growth was found to be 1.08.
